In PubChem BioAssay AID1794845 (National Center for Advancing Translational Sciences (NCATS), 2023):
The whole screen tested about 6,900 compounds, of which fewer than 10 were called active. The call rests on the fitted dose curve; in most records, active means well fitted curve in the direction sought with a large enough effect; inconclusive means small, poorly fitted or top-dose-only effect, or another doubt; inactive means no such curve, though single readings can be large or run the other way. The list shows a part of the results.

Sequences of proteins named here, by UniProt entry; tags and fusion partners are left off. A change or cut given only in a name is not applied to a line headed by its entry.
UniProt C7C422: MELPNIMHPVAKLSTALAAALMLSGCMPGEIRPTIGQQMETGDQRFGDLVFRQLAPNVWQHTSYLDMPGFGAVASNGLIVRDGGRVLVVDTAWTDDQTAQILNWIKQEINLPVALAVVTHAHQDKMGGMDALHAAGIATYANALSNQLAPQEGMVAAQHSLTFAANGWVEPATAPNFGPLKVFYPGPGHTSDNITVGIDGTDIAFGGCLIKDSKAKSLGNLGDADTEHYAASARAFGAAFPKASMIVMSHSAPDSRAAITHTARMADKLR

Each molecule was assayed against Metallo-beta-lactamase type 2 (Klebsiella pneumoniae) (UniProt C7C422) (assay: qHTS to identify inhibitors of the New Delhi Metallo-beta-lactamase (NDM): primary screen against the NCATS Gemini Collection). Details: NDM-1 enzyme, meropenem hydrolysis, absorbance 300 nm; at 38.4 µM (top of the series) unless noted.
How it was run: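 NDM-1 at 2 nM final in 50 mM HEPES pH 7.0, 1 uM ZnSO4, 0.01% Tween20, preincubated >30 min with compound. Meropenem 50 uM final added; absorbance at 300 nm after 30 min.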
Further: % of control where 0% means no effect.

Activity % (negative = inhibition), inactive:
Cc1cc(C)cc(N2CCC(N)C2=O)c1 (stereo not drawn) -0.27%
O=C1CO[C@H]2CN(Cc3ccncc3)C[C@H]2N1Cc1ccc(F)cc1 5.45% [at 57.5 µM]
Cn1nc(-c2cccc(F)c2)c(N2CCCC2)c1NC(=O)NCc1ccccc1 15.1%
CC(C)(C)C(=O)N1CCC2(CC1)C(=O)N(CC(=O)Nc1cccc(Cl)c1)CN2c1ccccc1 -3.63%
COc1ccc(-c2cc(-c3cnn(C)c3)cn3cncc23)cn1 4.33% [at 57.5 µM]
CN1C(=O)CC(C(=O)O)C12CCN(Cc1nc3ccsc3c(=O)[nH]1)CC2 (stereo not drawn) -6.63%
CC(=O)NCC1CN(C(=O)NCc2ccc(OC(F)(F)F)cc2)CC12CCCCC2 (stereo not drawn) -1.48%
O=C(O)CC1(CC(=O)N[C@@H]2C=C(C(=O)N[C@H]3CCCNC3=O)C[C@@H](O)[C@@H]2O)CCCC1 8.07%
CC(=O)c1ccc(NC(=O)N2C[C@@H]3C[C@H](C2)c2ccc(NC(=O)c4ccc(F)cc4)c(=O)n2C3)cc1 0.456%
O=C1OCCC1CCC(=O)N1CCc2c(nc(-c3ccccc3)[nH]c2=O)C1 (stereo not drawn) 14.7%
CN(C)[C@H]1CCCCN(C(=O)c2cn(CCN3CCNCC3)nn2)C1 3.21%
COc1ccccc1-c1nc2nccc(-c3cc(OC)c(OC)c(OC)c3)n2n1 94.8%
O=C(C1CCC1)N1CCC[C@H]1c1nc(-c2ccc(F)cc2)n[nH]1 2.73%
CCn1cc(CN(C)CC(=O)N2CCCCCC2)ccc1=O 1.34%
Cc1nn(C)c(C)c1CCC(=O)NCCc1ncc(C)n1Cc1ccc(F)cc1 -0.797%
CN(Cc1ccccc1)Cc1nnc(C(=O)N2CCC[C@@H]2c2cccc(F)c2)n1-c1ccccc1 -1.81%
CC(c1n[nH]c(=O)n1CCC(=O)O)n1cccn1 (stereo not drawn) 34.6%
O=C(NC1CCCCC1)N1C2CCC1CN(c1ccc(C(F)(F)F)cc1)C2 -1.15%
CCc1ccc(C(=O)N2CCC([C@@H]3CNC[C@H]3CO)CC2)cc1 -2.75%
c1ccc(CCCN2CC[C@H](c3nc4ccccc4s3)C2)cc1 -1.98% [at 57.5 µM]
Cc1nc(NC(C)c2nc(-c3cccnc3)no2)c2cccnc2n1 (stereo not drawn) 39.6%
O=C(Cn1ccc2ccccc2c1=O)N1CCCOC(Cn2cccn2)C1 (stereo not drawn) 10.7%
O=C1CC2CCCC(C1)N2C(=O)c1cc(F)ccc1Br 13.6% [at 57.5 µM]
Cc1ccc(-c2ccccc2CN2CCN([S+](=O)([O-])c3cccc(C(F)(F)F)c3)CC2)cc1Cl 7.11%
Cc1nc(-c2cn(C3CCCN(C(=O)C(C)Oc4ccccc4)C3)nn2)no1 (stereo not drawn) -0.471%
N#Cc1ccc(O[C@@H]2CCOC[C@H]2NC(=O)CCCn2cncn2)cc1 -1.01%
O=C(c1cc(CC2(NCc3ccccc3F)COC2)no1)N1CCCCC1 2.52% [at 57.5 µM]
COc1ccc(OCC(=O)N2CCN(c3cc(-c4ccccc4)[nH]n3)CC2)cc1 2.9%
O=C1CCC(CNS(=O)(=O)c2cccnc2)CCN1Cc1ccccc1 (stereo not drawn) -0.459%
CN(CC1CCOC1)S(=O)(=O)Cc1cccc(Cl)c1 (stereo not drawn) -0.341%
CS(=O)(=O)N1C[C@@H]2OCC(=O)N(Cc3ccncc3)[C@@H]2C1 3.99% [at 57.5 µM]
O=C(NCc1cccnc1)C1CN(S(=O)(=O)C2CC2)CC12CCCCC2 (stereo not drawn) 5.03%
O=C(NC1CCCC1)c1ccc2c(c1)n(Cc1cccc(F)c1)c(=O)c1ccnn12 2.87%
O=C(c1n[nH]c2c1CCCC2)N1CCc2nc3cc[nH]n3c(=O)c2C1 19.9%
CC1CCN([C@@H]2[C@H](O)[C@H](CO)O[C@@H]2CN(Cc2ccc(F)cc2)Cc2ccc(F)cc2)CC1 -1.03%
Cn1c(C(=O)Nc2ccc3c(c2)OCO3)cc2c1CCN(Cc1cccc(F)c1)C2 36.9%
COc1ccc(NC(=O)[C@@H]2C[C@H](c3ccc(F)cc3)N(Cc3ccccc3Cl)C2)cn1 6.46% [at 57.5 µM]
COc1ccccc1C(=O)N1CCCN(c2nnc3ccccn23)CC1 62.8%
O=C1CCN(C(=O)Cc2cccc(F)c2)CCCCCCN1 0.481%
COCc1cccc(C(=O)N2CC[C@@]3(O)CCN(S(C)(=O)=O)C[C@H]3C2)n1 -0.329%
COc1ccc([C@H]2C[C@@H](O)[C@@H](O)[C@@H]2NCc2ccc(OC)nc2)cc1 -1.63% [at 57.5 µM]
O=C1CN(C(=O)c2cccc(C(F)(F)F)c2)CC(OCc2cccnc2)CN1CC1CCOCC1 (stereo not drawn) 3.12%
CCC(=O)N(C1CCOCC1)C1CCN(Cc2ccc[nH]2)CC1 -1.23%
COc1ccc(C(=O)C2CCCN(Cc3csc(C(C)=O)c3)C2)c(OC)c1 (stereo not drawn) 9.05%
Cc1nnc2ccc(N3CCN(C(=O)c4ccncc4)CC3)nn12 0.974% [at 57.5 µM]
COCC(=O)Nc1ccc([C@H]2OCC(=O)N[C@@H]2CO)cc1 20.5% [at 57.5 µM]
Cc1ccc(O[C@H]2COCC[C@H]2NC(=O)c2ccc(-c3ccn[nH]3)cc2)cn1 2.68%
CCS(=O)(=O)Nc1ccc(C2(C(=O)NCc3cccc(Cl)c3)CCC2)cc1 4.34%
C=CCCCC(=O)Nc1ccc(NC(=O)C(C)(C)C)c(OC)c1 7.52%
CCC(C)N1Cc2cc(NC(=O)c3ccc([N+](=O)[O-])cc3)ccc2OCC1=O (stereo not drawn) 15%
CN(C)c1cccc(-c2nc(-c3nnn4c3COC(c3ccccc3Cl)C4)no2)c1 (stereo not drawn) -2.21%
O=S(=O)(N[C@H]1CO[C@H]2[C@@H]1OC[C@@H]2n1nnnc1Oc1cccc(N2CCOCC2)c1)c1cccs1 0.144%
COCCOC1CCOC2(CCN(C(=O)CCCc3ccccc3)CC2)C1 (stereo not drawn) -0.361%

Random excerpt: 2 compounds from above
Activity % (negative = inhibition), inactive:
Cc1nnc2ccc(N3CCN(C(=O)c4ccncc4)CC3)nn12 0.974% [at 57.5 µM]
Cc1nc(NC(C)c2nc(-c3cccnc3)no2)c2cccnc2n1 (stereo not drawn) 39.6%
